Assay [1] has as its target 3β-hydroxy-Δ5-C27-steroid oxidoreductase (HSD3B7), wild type (human) (UniProt Q9H2F3). The assay is described as follows: native gel or EMSA; native-PAGE of the purified constructs; both purified. A general note: In EMSA bound probe runs differently from free probe, usually more slowly.
Assay [2] shares this target. Description: cross-linking; chemical crosslinking in solution, bands on a gel; both purified.
Assay [3] has the same target. The assay is described as follows: mass photometry; Refeyn TwoMP; sample diluted in its reaction buffer to 100 nM, in drop to 20 nM final; protein associated with DDM micelles; both purified.

Results are given in words; binding and its absence hold for the method and conditions named.

B1: 3β-hydroxy-Δ5-C27-steroid oxidoreductase (HSD3B7), wild type (enzyme, UniProt Q9H2F3 1-369)
chain: MADSAQAQKLVYLVTGGCGFLGEHVVRMLLQREPRLGELRVFDQHLGPWLEELKTGPVRVTAIQGDVTQAHEVAAAVAGAHVVIHTAGLVDVFGRASPKTIHEVNVQGTRNVIEACVQTGTRFLVYTSSMEVVGPNTKGHPFYRGNEDTPYEAVHRHPYPCSKALAEWLVLEANGRKVRGGLPLVTCALRPTGIYGEGHQIMRDFYRQGLRLGGWLFRAIPASVEHGRVYVGNVAWMHVLAARELEQRATLMGGQVYFCYDGSPYRSYEDFNMEFLGPCGLRLVGARPLLPYWLLVFLAALNALLQWLLRPLVLYAPLLNPYTLAVANTTFTVSTDKAQRHFGYEPLFSWEDSRTRTILWVQAATGSAQ
For B1, the binding result in assay [1] was “no binding”; in assay [2] it was “no binding”; in assay [3] it was “no binding (tested: 20 nM)”.

Values taken from PMC11648244, “Substrate specificity and kinetic mechanism of 3β-hydroxy- Δ ^5-C27-steroid oxidoreductase” (The Journal of Biological Chemistry, 2024).
